Literature values as cited in patent US8741330B2, “Transluminal drug delivery methods and devices” (priority 2006, dated 2014).

Settings: as stated in Example 1; cited from earlier work

For `CCN(CC)CC(=O)Nc1c(C)cccc1C` [lidocaine], the “toxic blood level of lidocaine” value is given as “greater than 8 μg per ml”.
